Measured values as given in US10077295B2, “Glycoproteins having lipid mobilizing properties and therapeutic uses thereof” (Aston University, priority 2010, dated 2018).

Experiments:
ob/ob mice [1] = test: ob/ob mice administered ZAG i.v. for 5 days (120 h): body weight, temperature, plasma metabolites, tissue weights; type: in vivo, mouse
Procedure: Animals—Mice. Homozygous obese (ob/ob) mice from the colony maintained at Aston University were used in the present study. The origin and characteristics of Aston ob/ob mice have been previously described. Male mice (20-21 weeks old, weight 90-100 g) were grouped into three per cage in an air conditioned room at 22±2° C. with a 12 h-light:12 h-dark cycle and fed a rat and mouse breeding diet (Special Diet Services, Witham, UK) and tap water ad libitum. They were administered ZAG (35 μg) in PBS (100 μl) b.d. by i.v. administration and body weight and food and water intake were monitored daily. Control mice received PBS alone. Body temperature was measured daily by the use of a rectal thermometer (RS Components, Northants, UK). […]
Serum Metabolite Determinations. Non-esterified fatty acids (NEFA) were determined using a Wako-ASC-ACOD kit (Wako Chemical GmbH, Neuss, Germany). Triglycerides were determined using a Triglyceride kit (Sigma Chemical Co., Poole, United Kingdom) and 3-hydroxybutyrate by a quantitative enzymatic determination kit (Sigma). Glucose was measured using a glucose analyser (Beckman, Irvine, Calif.) and glycerol was determined enzymatically using the method of Wieland as described in “Methods of Enzymatic Analysis” (Ed. Bergmeyer, H. U.) Vol. 3, pp1404-1409, published by Academic Press, London (1974).

ob/ob mice [2] = test: ob/ob mice treated with ZAG, 21 day study; type: in vivo, mouse
Procedure: FIG. 7A is a graphical diagram showing weight loss of the ob/ob mice during the 21 day study. ZAG was injected at days 1, 4, 5, 8, 13, 16, 18, and 19; PBS was injected at the same time points.
Animals—Mice. Homozygous obese (ob/ob) mice from the colony maintained at Aston University were used in the present study. The origin and characteristics of Aston ob/ob mice have been previously described. Male mice (20-21 weeks old, weight 90-100 g) were grouped into three per cage in an air conditioned room at 22±2° C. with a 12 h-light:12 h-dark cycle and fed a rat and mouse breeding diet (Special Diet Services, Witham, UK) and tap water ad libitum. They were administered ZAG (35 μg) in PBS (100 μl) b.d. by i.v. administration and body weight and food and water intake were monitored daily. Control mice received PBS alone. Body temperature was measured daily by the use of a rectal thermometer (RS Components, Northants, UK). All animal experiments were carried out in accordance with the U.K. Animals (Scientific Procedures) Act 1986.
After 21 days, the plasma metabolite levels in the ob/ob mice were observed (Table 2), with monitored parameters shown in Table 3. […]

male Wistar rats = test: mature male Wistar rats, daily i.v. ZAG for 10 days: body weight, body composition, plasma metabolites; type: in vivo, rat
Procedure: Animal—Rats. Mature male Wistar rats (one year old from our own colony) weighing 540±82.5 g were housed individually and treated once daily i.v., with either ZAG in PBS (100 μl) (50 μg per 100 g body weight), or with PBS (100 μl) as a control. Both food and water intake and body weight were measured daily. Animals were given free access to food (Special Diet Services, Essex, UK) and water ad libitum. The animal experiment was carried out under the welfare conditions imposed by the British Home Office. After 10 days treatment the animals were terminated and the body composition determined. Animals were heated to 80-90° C. for 7 days until constant weight was achieved. The water content was then determined from the difference between the wet and dry weight. Lipids were extracted from the dry carcass using a sequence of chloroform:methanol (1:1), ethanol/acetone (1:1) and diethyl ether (120 ml of each) as described by Lundholm et al (14). […] The non-fat carcass mass was calculated as the difference between the initial weight of the carcass and the weight of water and fat.
Serum Metabolite Determinations. Non-esterified fatty acids (NEFA) were determined using a Wako-ASC-ACOD kit (Wako Chemical GmbH, Neuss, Germany). Triglycerides were determined using a Triglyceride kit (Sigma Chemical Co., Poole, United Kingdom) and 3-hydroxybutyrate by a quantitative enzymatic determination kit (Sigma). […]

B1: ZAG: recombinant full length human zinc-α2-glycoprotein (SEQ ID NO: 1) secreted by transfected HEK293F cells; lipid mobilizing factor (protein, listed as Homo sapiens)
chain: QENQDGRYSLTYIYTGLSKHVEDVPAFQALGSLNDLQFFRYNSKDRKSQPMGLWRQVEGMEDWKEDSQLQKAREDMETLKDIVEYYNDSNGSHVLQGRFGCEIENNRSSGAFWKYYYDGKDYIEFNKEIPAWVPFDPAAQITKQKWEAEPVYVQRAKAYLEEECPATLRKYLKYSKNILDRQDPPSVVVTSHQAPGEKKKLKCLAYDFYPGKIDVHWTRAGQVQEPELRGDVLHNGNGTYQSWVVVAVPPQDTAPYSCHVQHSSLAQPLVVPWEAS
food intake over the course of the experiment (ob/ob mice [1]): 30 ± 2.5 g | water intake over the course of the experiment (ob/ob mice [1]): 135 ± 3.2 mL | Food (ob/ob mice [2]): 145 ± 4 g | Water (ob/ob mice [2]): 259 ± 20 mL | food intake (male Wistar rats): 102 ± 32 g | water intake (male Wistar rats): 135 ± 35 mL
